The supplement of paper PMC10849652
The other results are listed elsewhere or left out.

Sequences of proteins named here, by UniProt entry; tags and fusion partners are left off. A change or cut given only in a name is not applied to a line headed by its entry.
UniProt P05387, whole entry, looked up: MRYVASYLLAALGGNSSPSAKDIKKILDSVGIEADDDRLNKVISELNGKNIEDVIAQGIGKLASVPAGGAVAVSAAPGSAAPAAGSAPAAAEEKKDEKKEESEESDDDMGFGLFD
UniProt Q92901: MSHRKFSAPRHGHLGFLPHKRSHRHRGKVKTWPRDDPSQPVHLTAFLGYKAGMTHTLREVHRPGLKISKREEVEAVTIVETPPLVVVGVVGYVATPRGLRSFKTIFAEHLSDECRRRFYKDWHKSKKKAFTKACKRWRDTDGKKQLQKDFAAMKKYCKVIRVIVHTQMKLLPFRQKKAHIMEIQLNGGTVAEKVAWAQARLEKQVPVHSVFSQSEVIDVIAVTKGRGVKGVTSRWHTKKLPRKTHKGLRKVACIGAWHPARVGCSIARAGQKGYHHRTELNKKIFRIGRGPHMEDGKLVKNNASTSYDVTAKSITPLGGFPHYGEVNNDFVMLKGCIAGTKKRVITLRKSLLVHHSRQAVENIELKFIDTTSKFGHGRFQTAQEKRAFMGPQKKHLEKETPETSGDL
UniProt Q8N122, whole entry, looked up: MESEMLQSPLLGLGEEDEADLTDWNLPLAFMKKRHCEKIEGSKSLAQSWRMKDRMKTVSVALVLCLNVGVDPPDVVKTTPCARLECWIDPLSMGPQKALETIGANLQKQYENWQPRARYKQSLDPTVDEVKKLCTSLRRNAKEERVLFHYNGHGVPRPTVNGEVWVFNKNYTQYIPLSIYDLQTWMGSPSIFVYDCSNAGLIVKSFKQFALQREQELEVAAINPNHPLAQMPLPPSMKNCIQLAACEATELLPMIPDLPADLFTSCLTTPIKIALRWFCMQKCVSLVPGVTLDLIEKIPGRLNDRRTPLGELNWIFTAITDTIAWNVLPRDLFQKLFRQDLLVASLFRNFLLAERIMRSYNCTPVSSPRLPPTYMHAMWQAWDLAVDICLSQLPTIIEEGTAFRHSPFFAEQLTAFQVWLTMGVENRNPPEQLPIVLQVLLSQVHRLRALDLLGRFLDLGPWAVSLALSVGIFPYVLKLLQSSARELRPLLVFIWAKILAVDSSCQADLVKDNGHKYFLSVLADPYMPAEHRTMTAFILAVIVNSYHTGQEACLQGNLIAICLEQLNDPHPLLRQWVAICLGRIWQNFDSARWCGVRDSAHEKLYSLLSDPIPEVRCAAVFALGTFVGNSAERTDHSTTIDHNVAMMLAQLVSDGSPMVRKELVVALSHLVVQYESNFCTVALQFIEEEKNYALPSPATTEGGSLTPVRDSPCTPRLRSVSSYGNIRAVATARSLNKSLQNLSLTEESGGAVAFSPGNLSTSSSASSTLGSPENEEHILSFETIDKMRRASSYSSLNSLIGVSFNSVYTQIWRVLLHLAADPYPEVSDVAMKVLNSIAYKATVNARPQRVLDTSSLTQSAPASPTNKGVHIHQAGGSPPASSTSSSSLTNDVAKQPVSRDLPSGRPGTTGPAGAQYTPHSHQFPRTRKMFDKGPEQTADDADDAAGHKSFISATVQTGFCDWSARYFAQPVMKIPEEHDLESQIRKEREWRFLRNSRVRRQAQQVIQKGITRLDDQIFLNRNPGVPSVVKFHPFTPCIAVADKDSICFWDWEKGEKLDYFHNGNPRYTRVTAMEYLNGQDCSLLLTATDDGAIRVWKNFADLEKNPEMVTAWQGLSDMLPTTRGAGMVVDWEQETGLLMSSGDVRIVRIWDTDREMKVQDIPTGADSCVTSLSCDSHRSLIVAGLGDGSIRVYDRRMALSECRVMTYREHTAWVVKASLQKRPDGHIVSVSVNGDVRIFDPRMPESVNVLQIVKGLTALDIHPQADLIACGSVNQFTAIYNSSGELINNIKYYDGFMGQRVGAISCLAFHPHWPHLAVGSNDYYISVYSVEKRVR
UniProt P78346: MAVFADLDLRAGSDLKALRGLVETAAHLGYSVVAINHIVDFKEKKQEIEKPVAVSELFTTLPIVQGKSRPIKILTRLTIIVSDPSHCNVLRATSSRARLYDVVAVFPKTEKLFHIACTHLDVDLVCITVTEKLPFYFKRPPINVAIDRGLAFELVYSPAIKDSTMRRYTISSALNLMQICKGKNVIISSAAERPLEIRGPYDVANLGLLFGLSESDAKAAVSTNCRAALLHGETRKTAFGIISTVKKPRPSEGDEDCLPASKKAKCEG
UniProt Q15418, whole entry, looked up: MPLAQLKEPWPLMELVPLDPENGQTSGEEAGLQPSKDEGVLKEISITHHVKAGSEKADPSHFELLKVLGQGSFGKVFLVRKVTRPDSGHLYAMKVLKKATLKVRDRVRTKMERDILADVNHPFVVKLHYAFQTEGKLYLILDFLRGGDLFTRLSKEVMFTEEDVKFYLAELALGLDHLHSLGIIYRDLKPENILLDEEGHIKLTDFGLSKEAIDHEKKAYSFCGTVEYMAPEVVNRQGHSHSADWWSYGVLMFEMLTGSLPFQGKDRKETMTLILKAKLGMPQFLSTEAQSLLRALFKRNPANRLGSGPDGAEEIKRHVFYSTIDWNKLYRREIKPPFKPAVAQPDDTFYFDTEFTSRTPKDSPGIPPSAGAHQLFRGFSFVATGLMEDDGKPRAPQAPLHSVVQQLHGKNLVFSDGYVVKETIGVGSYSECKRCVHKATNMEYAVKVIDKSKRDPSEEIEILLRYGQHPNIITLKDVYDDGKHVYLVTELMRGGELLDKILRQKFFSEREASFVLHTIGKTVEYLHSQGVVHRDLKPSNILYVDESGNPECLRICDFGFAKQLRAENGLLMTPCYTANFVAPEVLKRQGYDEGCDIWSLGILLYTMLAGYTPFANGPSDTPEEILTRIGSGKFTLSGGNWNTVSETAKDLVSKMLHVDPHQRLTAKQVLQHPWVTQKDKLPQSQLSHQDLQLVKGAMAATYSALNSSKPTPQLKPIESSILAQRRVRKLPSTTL
UniProt P23443: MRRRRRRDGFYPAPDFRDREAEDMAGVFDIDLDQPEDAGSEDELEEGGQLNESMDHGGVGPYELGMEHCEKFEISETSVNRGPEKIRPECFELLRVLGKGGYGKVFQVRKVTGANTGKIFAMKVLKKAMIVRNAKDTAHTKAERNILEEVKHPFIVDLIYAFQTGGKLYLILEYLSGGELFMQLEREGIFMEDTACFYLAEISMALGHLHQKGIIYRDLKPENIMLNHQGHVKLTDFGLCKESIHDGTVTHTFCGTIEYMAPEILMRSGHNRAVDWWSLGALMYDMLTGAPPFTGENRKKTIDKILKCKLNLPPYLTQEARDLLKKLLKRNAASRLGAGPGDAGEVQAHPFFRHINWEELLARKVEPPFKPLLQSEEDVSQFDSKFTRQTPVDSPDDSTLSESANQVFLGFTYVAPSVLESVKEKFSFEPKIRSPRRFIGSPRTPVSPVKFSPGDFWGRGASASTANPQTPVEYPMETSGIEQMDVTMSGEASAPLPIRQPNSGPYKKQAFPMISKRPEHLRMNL
UniProt Q15349, whole entry, looked up: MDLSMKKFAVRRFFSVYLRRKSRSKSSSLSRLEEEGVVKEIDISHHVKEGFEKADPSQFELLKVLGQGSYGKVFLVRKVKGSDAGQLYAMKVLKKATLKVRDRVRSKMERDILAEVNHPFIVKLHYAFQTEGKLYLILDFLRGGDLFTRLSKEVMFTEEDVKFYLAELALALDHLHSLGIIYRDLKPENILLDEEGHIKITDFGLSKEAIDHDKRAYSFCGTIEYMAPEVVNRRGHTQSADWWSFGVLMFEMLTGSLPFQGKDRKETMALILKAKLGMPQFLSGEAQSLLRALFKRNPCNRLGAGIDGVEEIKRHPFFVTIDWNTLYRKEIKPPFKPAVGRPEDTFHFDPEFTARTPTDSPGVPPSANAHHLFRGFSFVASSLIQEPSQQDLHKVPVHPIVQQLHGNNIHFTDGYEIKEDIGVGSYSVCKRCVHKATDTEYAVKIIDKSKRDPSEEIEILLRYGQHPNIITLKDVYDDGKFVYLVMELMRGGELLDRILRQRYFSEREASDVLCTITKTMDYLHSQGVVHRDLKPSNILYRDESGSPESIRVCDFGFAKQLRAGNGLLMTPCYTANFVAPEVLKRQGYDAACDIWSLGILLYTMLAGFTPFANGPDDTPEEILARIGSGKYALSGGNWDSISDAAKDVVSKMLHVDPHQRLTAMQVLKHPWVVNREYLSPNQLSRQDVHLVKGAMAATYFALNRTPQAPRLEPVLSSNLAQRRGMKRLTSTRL
UniProt Q96S38: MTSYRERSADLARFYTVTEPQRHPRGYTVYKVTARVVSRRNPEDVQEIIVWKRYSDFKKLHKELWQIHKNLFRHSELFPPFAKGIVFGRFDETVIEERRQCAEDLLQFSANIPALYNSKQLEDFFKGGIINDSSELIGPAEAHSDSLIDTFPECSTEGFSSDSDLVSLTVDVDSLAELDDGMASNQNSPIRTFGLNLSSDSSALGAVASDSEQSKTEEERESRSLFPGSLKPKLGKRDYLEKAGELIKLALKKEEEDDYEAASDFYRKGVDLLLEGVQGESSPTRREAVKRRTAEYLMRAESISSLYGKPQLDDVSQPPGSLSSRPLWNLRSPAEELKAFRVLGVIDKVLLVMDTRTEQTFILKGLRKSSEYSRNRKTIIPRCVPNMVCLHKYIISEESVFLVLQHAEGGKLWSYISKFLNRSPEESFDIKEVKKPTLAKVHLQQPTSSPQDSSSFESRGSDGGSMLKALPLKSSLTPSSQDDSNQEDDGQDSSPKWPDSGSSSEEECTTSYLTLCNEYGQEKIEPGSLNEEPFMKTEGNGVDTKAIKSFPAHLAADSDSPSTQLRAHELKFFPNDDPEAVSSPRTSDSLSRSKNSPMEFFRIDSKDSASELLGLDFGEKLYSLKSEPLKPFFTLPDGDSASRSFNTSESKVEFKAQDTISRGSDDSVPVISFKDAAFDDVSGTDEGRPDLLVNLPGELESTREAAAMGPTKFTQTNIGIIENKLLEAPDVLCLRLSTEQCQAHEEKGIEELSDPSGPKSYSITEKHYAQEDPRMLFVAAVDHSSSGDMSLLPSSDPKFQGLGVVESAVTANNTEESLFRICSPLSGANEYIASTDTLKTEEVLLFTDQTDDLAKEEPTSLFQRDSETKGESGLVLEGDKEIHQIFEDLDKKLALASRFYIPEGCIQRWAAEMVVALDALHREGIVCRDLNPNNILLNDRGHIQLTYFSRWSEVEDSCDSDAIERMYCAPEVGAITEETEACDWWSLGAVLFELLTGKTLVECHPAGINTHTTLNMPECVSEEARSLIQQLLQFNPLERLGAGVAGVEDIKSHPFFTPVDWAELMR
UniProt P15927: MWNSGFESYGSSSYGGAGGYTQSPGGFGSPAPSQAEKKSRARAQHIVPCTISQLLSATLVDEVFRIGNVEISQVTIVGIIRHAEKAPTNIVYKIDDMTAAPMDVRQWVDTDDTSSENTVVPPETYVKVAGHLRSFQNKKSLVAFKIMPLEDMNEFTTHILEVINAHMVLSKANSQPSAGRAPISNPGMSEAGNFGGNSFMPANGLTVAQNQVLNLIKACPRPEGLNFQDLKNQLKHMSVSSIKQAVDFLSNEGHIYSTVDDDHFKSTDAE
UniProt Q5VZM2, whole entry, looked up: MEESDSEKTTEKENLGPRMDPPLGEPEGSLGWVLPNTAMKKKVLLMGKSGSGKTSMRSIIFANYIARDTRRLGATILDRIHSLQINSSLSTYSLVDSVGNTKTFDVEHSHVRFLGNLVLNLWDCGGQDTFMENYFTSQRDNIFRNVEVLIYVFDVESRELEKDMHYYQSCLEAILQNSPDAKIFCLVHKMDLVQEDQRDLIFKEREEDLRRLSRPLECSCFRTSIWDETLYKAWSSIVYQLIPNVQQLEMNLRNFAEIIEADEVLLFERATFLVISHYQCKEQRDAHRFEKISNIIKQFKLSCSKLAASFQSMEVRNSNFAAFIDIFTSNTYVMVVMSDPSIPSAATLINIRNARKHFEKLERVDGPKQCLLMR
UniProt Q9UBF6, whole entry, looked up: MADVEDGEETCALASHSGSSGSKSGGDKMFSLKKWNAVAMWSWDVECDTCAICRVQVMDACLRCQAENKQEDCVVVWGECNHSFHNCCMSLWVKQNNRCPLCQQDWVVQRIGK
UniProt P04843: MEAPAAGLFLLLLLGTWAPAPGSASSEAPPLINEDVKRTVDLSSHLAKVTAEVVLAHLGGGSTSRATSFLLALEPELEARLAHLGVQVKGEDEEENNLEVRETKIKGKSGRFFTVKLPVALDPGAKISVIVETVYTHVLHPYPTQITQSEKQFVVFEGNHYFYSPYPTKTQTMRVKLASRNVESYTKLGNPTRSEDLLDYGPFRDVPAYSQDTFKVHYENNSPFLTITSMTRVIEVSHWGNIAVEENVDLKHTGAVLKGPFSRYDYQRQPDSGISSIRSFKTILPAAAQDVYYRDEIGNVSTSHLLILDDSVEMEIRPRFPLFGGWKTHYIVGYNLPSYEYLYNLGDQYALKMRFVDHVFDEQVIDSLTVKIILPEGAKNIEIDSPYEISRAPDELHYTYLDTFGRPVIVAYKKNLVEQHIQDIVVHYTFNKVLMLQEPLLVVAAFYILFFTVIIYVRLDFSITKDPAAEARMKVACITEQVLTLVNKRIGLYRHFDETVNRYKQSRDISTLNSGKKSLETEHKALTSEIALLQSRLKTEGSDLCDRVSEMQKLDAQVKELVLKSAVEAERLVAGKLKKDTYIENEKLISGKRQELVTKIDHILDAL

compound: C1=CC2=NC=CN=C2C=C1/C=C/3\C(=O)NC(=O)S3; assay: log2 fold change, soluble protein after heating vs DMSO (PISA); higher = thermal stabilisation; K562 cells, 10 uM, 30 min; active = over 0.2 and 3.5 SD of the protein, either way, in both replicates (recomputed)
Outline: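 K562 cells (2×10^6 cells/mL) were treated with 10 μM compound for 30 min, and aliquots were heated for 3 min over 48°C-58°C. Pooled aliquots were extracted in PBS with 0.5% NP-40 at 4°C, and the supernatant after 21,000xg for 90 min was measured by TMTpro 16plex LC-MS/MS with channel sums equalised. Reported thermal stability, relative to control samples and from duplicates, is a log2 fold change.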

log2 fold change, inactive:
RPLP2 (UniProt P05387) 0
RPP38 (UniProt P78345) 0.023
RPL29 (UniProt P47914) -0.061
RPL36 (UniProt Q9Y3U8) -0.039
RPS18 (UniProt P62269) -0.089
RPS3 (UniProt P23396) -0.027
RPL3L (UniProt Q92901) -0.048
RPTOR (UniProt Q8N122) 0.003
RPL10 (UniProt P27635) -0.051
RNH1 (UniProt P13489) 0.051
RPA1 (UniProt P27694) 0.003
RPP30 isoform 2 (UniProt P78346) -0.007
RPS6KA1 isoform 2 (UniProt Q15418) 0.039
RNPEP (UniProt Q9H4A4) 0.019
RPS6KB1 (UniProt P23443) 0.106
RPL18A (UniProt Q02543) -0.057
RO60 (UniProt P10155) -0.028
RPS3A (UniProt P61247) -0.035
RPS6KA2 isoform 2 (UniProt Q15349) 0.06
RPL28 (UniProt P46779) -0.052
RPS12 (UniProt P25398) -0.002
RPS6KC1 (UniProt Q96S38) 0.031
RNMT isoform 2 (UniProt O43148) 0.022
RPP21 isoform 4 (UniProt Q9H633) -0.039
RPS4X (UniProt P62701) -0.033
RPS24 isoform 4 (UniProt P62847) -0.021
RPL23A (UniProt P62750) -0.032
RPS19 (UniProt P39019) -0.044
RPA2 isoform 3 (UniProt P15927) 0
RNF34 isoform 2 (UniProt Q969K3) 0.039
RPL3 (UniProt P39023) -0.033
RPL35 (UniProt P42766) -0.077
RNPS1 (UniProt Q15287) 0.013
RRAGB (UniProt Q5VZM2) 0
RNF7 (UniProt Q9UBF6) 0.056
RPN1 (UniProt P04843) 0.013
RPL8 (UniProt P62917) -0.026
RPL19 (UniProt P84098) -0.084
RPS17 (UniProt P08708) -0.024
RPS27A (UniProt P62979) -0.033

Two entries picked at random from the list so far:
log2 fold change, inactive:
RNMT isoform 2 (UniProt O43148) 0.022
RPS27A (UniProt P62979) -0.033
